Screening data, single-dose tests

By UniProt entry, the sequences of proteins in these tests, tags left out.
UniProt P9WFT3, whole entry: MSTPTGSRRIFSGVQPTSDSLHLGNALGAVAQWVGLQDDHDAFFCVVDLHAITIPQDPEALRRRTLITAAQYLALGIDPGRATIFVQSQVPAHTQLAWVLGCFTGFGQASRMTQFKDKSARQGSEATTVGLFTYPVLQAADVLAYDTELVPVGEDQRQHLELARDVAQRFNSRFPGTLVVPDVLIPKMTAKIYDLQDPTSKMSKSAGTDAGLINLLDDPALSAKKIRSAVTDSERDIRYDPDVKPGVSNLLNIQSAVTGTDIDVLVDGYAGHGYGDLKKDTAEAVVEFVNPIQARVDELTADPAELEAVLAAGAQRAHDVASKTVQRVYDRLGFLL
UniProt P9WNZ1, whole entry: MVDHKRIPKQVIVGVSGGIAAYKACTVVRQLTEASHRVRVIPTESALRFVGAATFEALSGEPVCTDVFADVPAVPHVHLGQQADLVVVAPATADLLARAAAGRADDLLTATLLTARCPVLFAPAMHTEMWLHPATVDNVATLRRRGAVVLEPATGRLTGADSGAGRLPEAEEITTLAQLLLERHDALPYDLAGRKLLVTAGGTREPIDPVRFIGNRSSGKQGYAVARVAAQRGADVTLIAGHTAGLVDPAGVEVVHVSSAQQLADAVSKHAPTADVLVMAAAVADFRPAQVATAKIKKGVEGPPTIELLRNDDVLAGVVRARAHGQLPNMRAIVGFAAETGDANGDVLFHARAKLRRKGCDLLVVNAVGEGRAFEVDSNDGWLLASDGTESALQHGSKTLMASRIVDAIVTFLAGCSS
UniProt P9WPC5, whole entry: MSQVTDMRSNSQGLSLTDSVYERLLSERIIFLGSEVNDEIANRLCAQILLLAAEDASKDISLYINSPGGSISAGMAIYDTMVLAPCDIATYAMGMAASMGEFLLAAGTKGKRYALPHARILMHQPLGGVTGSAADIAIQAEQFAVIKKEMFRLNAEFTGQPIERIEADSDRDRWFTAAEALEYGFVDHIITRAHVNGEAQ
UniProt P9WPC3, whole entry partner: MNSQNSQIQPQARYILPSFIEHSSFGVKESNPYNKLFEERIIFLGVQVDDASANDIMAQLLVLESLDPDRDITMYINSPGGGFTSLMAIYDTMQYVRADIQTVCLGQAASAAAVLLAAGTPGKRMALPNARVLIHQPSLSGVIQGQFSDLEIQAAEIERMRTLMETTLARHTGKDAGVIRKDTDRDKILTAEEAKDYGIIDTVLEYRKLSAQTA

The values are deposited in ChEMBL (CHEMBL3988442, “University of Dundee, Small-Polar-MMV Screening Library” (2021)).

MtTrpRS: 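Tryptophan-tRNA ligase, Mycobacterium tuberculosis (UniProt P9WFT3). Enzyme assay of tryptophanyl-tRNA synthetase; the read-out is not stated. Tested at 10 µM. Higher most likely means stronger inhibition; the record gives no direction and few retests gave an IC50. About 65,000 compounds were tested under these conditions; 0.098% (about 64) showed 50% or more at least once.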
CoaBC: 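Enzyme assay of CoaBC with a phosphate dye (Biomol Green) read at 650 nm. Target: Coenzyme A biosynthesis protein CoaBC, Mycobacterium tuberculosis (UniProt P9WNZ1). Compounds at 30 µM. Direction is inferred from only a few compounds that gave an IC50; most scored high, so higher reads as stronger inhibition. Most strong results did not repeat in a second test. Size under these conditions: about 67,000 compounds, about 40 of them at 50% or above in at least one test.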
ClpP1P2: 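Protease assay of ClpP1P2, read by the AMC dye that it sets free. Target: ClpP1P2, Mycobacterium tuberculosis (UniProt P9WPC5 and UniProt P9WPC3). Concentration: 50 µM. Direction is inferred from only a few compounds that gave an IC50; most scored high, so higher reads as stronger inhibition. Most other retested compounds had strongly negative values. About 69,000 compounds were tested under these conditions; 0.015% (about 10) showed 50% or more at least once.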

Results are given as percent effect.
How 0% and 100% were set is not recorded. Most values in the screen are low, and negative values occur.
The compounds are a random part of those screened.
A dash means the value is not listed here; it may have been measured.

| Compound | MtTrpRS | CoaBC | ClpP1P2 |
|---|---|---|---|
| `C[C@@H]1CN(c2nc(N)nc3c2CCC3)CC[C@@]1(O)C1CCC1` | 2.848% | -7.127% | -6.51% |
| `COCCN1CCC(Cc2cnc(-c3ccccc3C(=O)O)cn2)CC1` | - | -2.179% | 5.326% |
| `O=C(Nc1cnccn1)[C@@H]1COC[C@H]2CN(C3CCC3)C[C@H]21` | -3.985% | -0.3841% | -11.97% |
| `COc1ccc(C(=O)NS(=O)(=O)c2cncc(Br)c2)c(OC)c1` | 8.118% | -2.067% | -0.998% |
| `Cn1cccc1CNC(=O)N(CCO)C1CCCc2ccccc21` (configuration not stated) | -0.3178% | -4.993% | -6.698% |
| `CCc1noc(CNc2ccc(C(=O)N3CCCC(C)C3)cc2C)n1` (configuration not stated) | 2.478% | 1.446% | 3.582% |
| `Cc1nc(CN2CCC(N(C)Cc3noc(C(C)C)n3)C2)cs1` (configuration not stated) | -2.352% | -4.051% | 15.9% |
| `CC(C)c1nccn1-c1cccc(C2CCCN2S(=O)(=O)N(C)C)n1` (configuration not stated) | 0.9167% | 4.058% | 15.49% |
| `COc1cc2cc(C)c(SCCN3CCCCC3)nc2cc1OC` | -3.201% | 5.361% | -23.43% |
| `CN1CCN(S(=O)(=O)c2ccc(C(=O)N3CC[C@@H](O)C3)cc2)CC1=O` | 3.233% | 8.255% | -3.704% |
| `Cc1nc(C2CCCN2C(=O)Cc2cccc(F)c2)nc(O)c1C` (configuration not stated) | 7.71% | -3.163% | 2.664% |
| `Cc1nsc(C(=O)NCCc2ccc(S(N)(=O)=O)cc2)n1` | -0.2681% | 3.777% | -5.872% |
| `Cn1cc(-c2cnc3n2CCC32CCN(S(=O)(=O)C3CC3)CC2)cn1` | -2.727% | 1.932% | 3.798% |
| `Cc1cc(C(=O)N2CCC3(CC2)C(=O)NCCN3CC(C)C)c(C)o1` | -2.525% | 1.426% | -1.481% |
| `COc1ccc(OCCN2CCOCS2(=O)=O)cc1` | -0.3673% | 1.088% | -6.246% |
| `Cn1cc(CN2CCCC3(CCN(Cc4cccnc4)C3=O)C2)cn1` (configuration not stated) | 0.4359% | 12.08% | -0.8112% |
| `CCN(CC(=O)NCc1nc(C2CC2)no1)Cc1ccc(Cl)cc1` | -1.528% | 8.049% | -3.726% |
| `CCc1cnc(CN2CCC(N(C)Cc3noc(C)n3)C2)o1` (configuration not stated) | 19.14% | -1.434% | 6.474% |
| `CC(C)c1ccc(CC2(C)Cc3cc(CC(=O)O)ccc3O2)cc1` (configuration not stated) | 10.29% | -2.153% | -1.678% |
| `Nc1cc2c(nn1)CCN(C(=O)c1csc(-c3ccccc3)n1)C2` | -3.846% | 7.258% | 3.518% |
| `CCCC(=O)NCCc1nc(N(C)C)ncc1-c1ccncc1` | -4.688% | 0.7177% | -29.47% |
| `CC(C)CC(=O)N1CCC2(CC1)NC(=O)[C@H]1CN(C(=O)N(C)C)C[C@H]12` | 8.003% | 5.852% | -4.156% |
| `Nc1nc(N)c2c(n1)OC1(CCN(Cc3nccs3)C1)C2` (configuration not stated) | -5.39% | -0.5256% | 6.568% |
| `COc1ccc(C(=O)N(CCC#N)Cc2ccccn2)cc1` | -0.5069% | 3.719% | -10.31% |
| `CCn1cc(CNC(=O)C(C)C)cn1` | 2.169% | -0.3797% | -7.874% |
| `COc1ccc(C)cc1C(C)NC(=O)CCn1cncn1` (configuration not stated) | -1.557% | 3.409% | -28.03% |
| `CCN(C(=O)CN1CCCC1c1ccc(OC)cc1)c1ccccc1C` (configuration not stated) | 0.000006% | 3.922% | 2.389% |
| `COc1nc2c(cc1C(=O)N1CCCOC(CN3CCCC3)C1)CCC2` (configuration not stated) | 3.109% | 4.715% | -3.941% |
| `CCC[C@H]1CN(C2CCOCC2)C[C@@H]1NC(=O)CCn1ccnc1C` | -6.856% | -1.935% | -1.488% |
| `CCN(Cc1ccncc1)C1CCCN(Cc2ccc(F)cc2Cl)C1` (configuration not stated) | -1.372% | -24.37% | -3.617% |
| `Cc1cc(C(=O)N2CCOC(c3ccc(Cl)c(Cl)c3)C2)[nH]n1` (configuration not stated) | 4.129% | 3.727% | 2.149% |
| `Cc1ccccc1S(=O)(=O)NC(=O)C1(c2ccccc2)CCC1` | 5.727% | 10.74% | 8.81% |
| `O=C(Cc1ccsc1)N1CCC(c2ccncc2)CC1` | 0.4575% | 3.308% | -15.22% |
| `CCn1ccnc1CN1CCCN(C(=O)c2cccn2C)CC1` | 4.529% | 2.332% | 4.672% |
| `CC(=O)NCC(=O)N1Cc2cc(C#N)ccc2C1c1cnco1` (configuration not stated) | 3.344% | - | 14.51% |
| `Cc1csc(C2(NCc3nc(-c4ccco4)oc3C)CCCC2)n1` | 3.269% | 16.94% | -4.649% |
| `CC(=O)N1CCC1c1cc(N2CCNC(=O)C2)nc(C)n1` (configuration not stated) | -7.464% | -12.09% | -16.54% |
| `CCOc1ccnc(N2CCN(C(=O)c3ccoc3C)CC2)n1` | -2.98% | -1.575% | -29.99% |
| `O=c1n(CCSCc2ccccc2F)nc2ccccn12` | -3.049% | 2.308% | -12.73% |
| `CN(Cc1cccc(F)c1)C(=O)c1cc2c([nH]c1=O)CCCC2=O` | -0.9676% | 7.597% | -13.48% |
| `Cc1ccsc1CCNC(=O)C1(Oc2cccnc2C)CCNCC1` | 0.7916% | -32.62% | 1.829% |
| `CCN(CC)Cc1nnc2sc(C(C)Oc3ccccc3)nn12` (configuration not stated) | -3.67% | 1.342% | 26.49% |
| `CCOC(C)c1nccn1Cc1noc(CC)n1` (configuration not stated) | -2.994% | 2.865% | 1.999% |
| `Cc1cccc(CN2CCc3ncnc(N4CCOCC4)c3CC2)n1` | -2.056% | 5.806% | -9.968% |
| `Cc1ccc(C)c2c1NC(=O)C2CC(=O)O` (configuration not stated) | -3.964% | -2.733% | -6.864% |
| `Cn1c(N)nnc1SC1CCCN(c2ccccc2)C1=O` (configuration not stated) | -0.3027% | - | -7.76% |
| `Cc1nc(C)n(CC2CCCCN2Cc2nc3ccccc3o2)n1` (configuration not stated) | 32.42% | 7.097% | -12% |
| `CC(=O)N1CCOC(c2c(C(=O)NCCN(C)C)sc3ccccc23)C1` (configuration not stated) | -1.639% | 10.72% | -0.3693% |

Once more, the final 5:

{"compound": "Cc1cccc(CN2CCc3ncnc(N4CCOCC4)c3CC2)n1", "MtTrpRS": -2.056, "CoaBC": 5.806, "ClpP1P2": -9.968}
{"compound": "Cc1ccc(C)c2c1NC(=O)C2CC(=O)O", "stereo": "configuration not stated", "MtTrpRS": -3.964, "CoaBC": -2.733, "ClpP1P2": -6.864}
{"compound": "Cn1c(N)nnc1SC1CCCN(c2ccccc2)C1=O", "stereo": "configuration not stated", "MtTrpRS": -0.3027, "ClpP1P2": -7.76}
{"compound": "Cc1nc(C)n(CC2CCCCN2Cc2nc3ccccc3o2)n1", "stereo": "configuration not stated", "MtTrpRS": 32.42, "CoaBC": 7.097, "ClpP1P2": -12}
{"compound": "CC(=O)N1CCOC(c2c(C(=O)NCCN(C)C)sc3ccccc23)C1", "stereo": "configuration not stated", "MtTrpRS": -1.639, "CoaBC": 10.72, "ClpP1P2": -0.3693}